{
  "sequences": {"note": "Protein sequences, listed by entry. Tags and fused reporters are not part of them. Residues count along the entry.", "UniProt Q96EB6, 2-747 limits assumed": "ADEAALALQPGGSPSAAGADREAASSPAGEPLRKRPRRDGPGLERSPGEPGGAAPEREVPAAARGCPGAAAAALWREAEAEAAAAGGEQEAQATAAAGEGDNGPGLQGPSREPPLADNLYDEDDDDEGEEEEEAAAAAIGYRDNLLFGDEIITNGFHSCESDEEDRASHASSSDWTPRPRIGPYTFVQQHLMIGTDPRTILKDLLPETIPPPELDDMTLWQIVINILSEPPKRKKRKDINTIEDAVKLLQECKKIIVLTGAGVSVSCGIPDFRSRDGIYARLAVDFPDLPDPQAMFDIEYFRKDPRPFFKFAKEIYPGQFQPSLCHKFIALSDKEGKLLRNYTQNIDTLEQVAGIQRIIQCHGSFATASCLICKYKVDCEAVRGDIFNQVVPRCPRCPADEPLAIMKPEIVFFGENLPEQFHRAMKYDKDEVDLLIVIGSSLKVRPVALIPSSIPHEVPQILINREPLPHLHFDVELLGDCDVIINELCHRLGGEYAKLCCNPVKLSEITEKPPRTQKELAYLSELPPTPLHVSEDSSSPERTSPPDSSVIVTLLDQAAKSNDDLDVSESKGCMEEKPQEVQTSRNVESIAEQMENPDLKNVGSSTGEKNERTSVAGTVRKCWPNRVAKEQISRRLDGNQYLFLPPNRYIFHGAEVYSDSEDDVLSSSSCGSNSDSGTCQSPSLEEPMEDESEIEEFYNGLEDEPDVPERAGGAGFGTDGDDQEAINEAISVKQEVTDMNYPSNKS"},
  "source": "paper PMC6925144",
  "about": "“A prospective compound screening contest identified broader inhibitors for Sirtuin 1” (Scientific Reports, 2019)",
  "note": "The full ranking holds about 3,200 compounds; the median of “TSA(without NAD+) / Primary screening (TSA) / delta Tm (K)” is about -0.07, and the highest 2% start at about 0.37. The list shows a part of the results.",
  "data": [
    {"target": "NAD-dependent deacetylase Sirtuin 1 (human, UniProt Q96EB6)", "assay": "primary screen, delta tm", "design": "single well (n = 1)", "settings": "10 µM", "in_short": "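Thermal shift of Sirtuin 1 measured without NAD+, compound at 10 µM (n = 1); value is ΔTm, with hits defined as ΔTm > 0.45 K or < −1.5 K. Hits retested at 5, 10, 20 µM (n = 4) and counterscreened on bovine carbonic anhydrase and ABL1 SH2 domain.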", "units": {"TSA(without NAD+) / Primary screening (TSA) / delta Tm (K)": "K"}, "values": [
      {"smiles": "CNC(C)CN", "note": "(centres unmarked)", "TSA(without NAD+) / Primary screening (TSA) / delta Tm (K)": -0.08},
      {"smiles": "Cn1ncc2c(N3CCN(CCC(=O)Nc4sccc4C(N)=O)CC3)ncnc21", "TSA(without NAD+) / Primary screening (TSA) / delta Tm (K)": 0.06},
      {"smiles": "O=C(NCC1CCCN(Cc2cccs2)C1)c1ccc2n[n-]nc2c1", "note": "(centres unmarked)", "TSA(without NAD+) / Primary screening (TSA) / delta Tm (K)": -0.12},
      {"smiles": "CC(C)Oc1ccc(C(=O)C2=C(O)C(=O)N(CCCN3CCOCC3)C2c2ccncc2)cc1", "note": "(centres unmarked)", "TSA(without NAD+) / Primary screening (TSA) / delta Tm (K)": -0.07},
      {"smiles": "Cc1nc(-c2ccc(CCNC(=O)CN3CCCCCCC3=O)cc2)cs1", "TSA(without NAD+) / Primary screening (TSA) / delta Tm (K)": -0.02},
      {"smiles": "Nc1nccnc1C(=O)NCC1CC2c3ccccc3C1c1ccccc12", "note": "(centres unmarked)", "TSA(without NAD+) / Primary screening (TSA) / delta Tm (K)": -0.22},
      {"smiles": "CN1C(=O)N(CCC23CC4CC(CC(C4)C2)C3)C(=O)C12CCCCC2", "TSA(without NAD+) / Primary screening (TSA) / delta Tm (K)": -0.22},
      {"smiles": "O=C(NCCc1c[nH]c2ccccc12)c1c[nH]cnc1=O", "TSA(without NAD+) / Primary screening (TSA) / delta Tm (K)": 0.02},
      {"smiles": "Cc1cccc(Cc2cnc(NC(=O)c3cc4c(C)nn(-c5ccccc5)c4s3)s2)c1", "TSA(without NAD+) / Primary screening (TSA) / delta Tm (K)": -0.01},
      {"smiles": "CS(=O)(=O)NCC1CCCN(C(=O)c2ccc3[nH]c4c(c3c2)CCCCC4)C1", "note": "(centres unmarked)", "TSA(without NAD+) / Primary screening (TSA) / delta Tm (K)": -0.21},
      {"smiles": "CC(C(=O)N1CCCC1)N1CCN(Cc2csc3ccccc23)CC1", "note": "(centres unmarked)", "TSA(without NAD+) / Primary screening (TSA) / delta Tm (K)": -0.03},
      {"smiles": "CC(N)CN", "note": "(centres unmarked)", "TSA(without NAD+) / Primary screening (TSA) / delta Tm (K)": -0.03},
      {"smiles": "Cc1ccc(NS(=O)(=O)c2cccc(C(=O)NC3CCC(CC4CCC(NC(=O)c5cccc(S(=O)(=O)Nc6ccc(C)cc6C)c5)CC4)CC3)c2)c(C)c1", "note": "(centres unmarked)", "TSA(without NAD+) / Primary screening (TSA) / delta Tm (K)": 0.03},
      {"smiles": "Cc1noc(C(NC(=O)c2cc(C(N)=O)cs2)C(C)C)n1", "note": "(centres unmarked)", "TSA(without NAD+) / Primary screening (TSA) / delta Tm (K)": 0.02},
      {"smiles": "Cc1ccc(-n2cnc3c2CCNC3)cc1", "TSA(without NAD+) / Primary screening (TSA) / delta Tm (K)": -0.22},
      {"smiles": "CC1CCN(c2ccc(NC(=O)CSc3nnc(NCc4ccco4)s3)cc2)CC1", "TSA(without NAD+) / Primary screening (TSA) / delta Tm (K)": -0.02},
      {"smiles": "Cc1nc2ncnn2c(N2CCn3c(nnc3-c3ccccc3)C2)c1C", "TSA(without NAD+) / Primary screening (TSA) / delta Tm (K)": -0.17},
      {"smiles": "CCCCCC(C)NC(=O)c1cccc(S(=O)(=O)N(C)c2ccc(OC)cc2)c1", "note": "(centres unmarked)", "TSA(without NAD+) / Primary screening (TSA) / delta Tm (K)": 0.25},
      {"smiles": "COc1ccc(C(CNC=C2C(=O)NC(=S)NC2=O)N(C)C)cc1", "note": "(centres unmarked)", "TSA(without NAD+) / Primary screening (TSA) / delta Tm (K)": -0.04},
      {"smiles": "COc1ccccc1NC(=O)C1CCN(C(=O)Nc2ccc(C)cc2OCc2ccccc2)CC1", "TSA(without NAD+) / Primary screening (TSA) / delta Tm (K)": -0.01},
      {"smiles": "O=c1[nH]c2ccccc2c(=O)n1CCSCCCO", "TSA(without NAD+) / Primary screening (TSA) / delta Tm (K)": -0.02},
      {"smiles": "O=C(CSc1nnnn1-c1ccc(O)cc1)N1N=C(c2ccc3ccccc3c2)CC1c1ccccc1", "note": "(centres unmarked)", "TSA(without NAD+) / Primary screening (TSA) / delta Tm (K)": 0.49},
      {"smiles": "O=C(NC1CCSc2ccccc21)c1ccc2c(=O)n3c(nc2c1)CCC3", "note": "(centres unmarked)", "TSA(without NAD+) / Primary screening (TSA) / delta Tm (K)": -0.02},
      {"smiles": "NC(=O)c1ccc(CN2CCSCC2)cc1", "TSA(without NAD+) / Primary screening (TSA) / delta Tm (K)": 0.06},
      {"smiles": "N#CC(C(=O)c1ccc([N+](=O)[O-])s1)=C1Nc2ccccc2N1", "TSA(without NAD+) / Primary screening (TSA) / delta Tm (K)": -0.27},
      {"smiles": "NNC(=O)COc1ccccc1Cl", "TSA(without NAD+) / Primary screening (TSA) / delta Tm (K)": -0.08},
      {"smiles": "O=c1cc(NCC2COc3ccccc3O2)nc2ccccn12", "note": "(centres unmarked)", "TSA(without NAD+) / Primary screening (TSA) / delta Tm (K)": -0.13},
      {"smiles": "CC1CCN(c2nnc(SCC(=O)Nc3sc4c(c3C(N)=O)CCC4)n2C2CC2)CC1", "TSA(without NAD+) / Primary screening (TSA) / delta Tm (K)": 0.15},
      {"smiles": "O=C(NCc1ccc(S(=O)(=O)N2CCOCC2)cc1)C12CC3CC(C1)CC(c1ccccc1)(C3)C2", "TSA(without NAD+) / Primary screening (TSA) / delta Tm (K)": -0.02},
      {"smiles": "COC(=O)C1Cc2ccccc2N1", "note": "(centres unmarked)", "TSA(without NAD+) / Primary screening (TSA) / delta Tm (K)": -0.23},
      {"smiles": "O=C(COc1ccc(Cl)cc1)OCCCC(=O)c1ccc(F)cc1", "TSA(without NAD+) / Primary screening (TSA) / delta Tm (K)": -0.11},
      {"smiles": "Cc1c(-c2ccccc2)sc(NC(=O)C23CC4CC(CC(O)(C4)C2)C3)c1C(=O)N1CCOCC1", "TSA(without NAD+) / Primary screening (TSA) / delta Tm (K)": -0.02},
      {"smiles": "O=C(C1=C(O)C(=O)N(CCCN2CCOCC2)C1c1ccco1)c1cc2ccccc2o1", "note": "(centres unmarked)", "TSA(without NAD+) / Primary screening (TSA) / delta Tm (K)": 0.02},
      {"smiles": "CCOc1ccc(C2C(C(=O)c3sc(C)nc3C)=C(O)C(=O)N2CCCN2CCOCC2)cc1", "note": "(centres unmarked)", "TSA(without NAD+) / Primary screening (TSA) / delta Tm (K)": -0.28},
      {"smiles": "NC(=O)c1ccc(C(=O)N2Cc3cc4c(cc3C3(CCCC3)C2)OCCO4)cc1", "TSA(without NAD+) / Primary screening (TSA) / delta Tm (K)": -0.08},
      {"smiles": "CN(Cc1ccco1)C(=O)CSc1nccn1Cc1ccccn1", "TSA(without NAD+) / Primary screening (TSA) / delta Tm (K)": -0.08},
      {"smiles": "COc1cccc(C(=O)C2=C(O)C(=O)N(CCCN3CCOCC3)C2c2ccc(C)o2)c1", "note": "(centres unmarked)", "TSA(without NAD+) / Primary screening (TSA) / delta Tm (K)": -0.02},
      {"smiles": "Cc1nc(-c2ccc(NC(=O)C3Cc4ccccc4O3)cc2)co1", "note": "(centres unmarked)", "TSA(without NAD+) / Primary screening (TSA) / delta Tm (K)": 0.15},
      {"smiles": "NC(=O)c1ccc2[nH]c3c(c2c1)CCCC3", "TSA(without NAD+) / Primary screening (TSA) / delta Tm (K)": 0.12},
      {"smiles": "COC(C)(C)CN", "TSA(without NAD+) / Primary screening (TSA) / delta Tm (K)": 0.02},
      {"smiles": "Cc1noc(C)c1CNc1ncnc2ccsc12", "TSA(without NAD+) / Primary screening (TSA) / delta Tm (K)": -0.31},
      {"smiles": "NC(=O)c1cc(NC(=O)CC(c2ccccc2)c2ccccc2)cc(C(N)=O)c1", "TSA(without NAD+) / Primary screening (TSA) / delta Tm (K)": -0.02},
      {"smiles": "COC(=O)c1cc(Br)cc(C(=O)O)c1", "TSA(without NAD+) / Primary screening (TSA) / delta Tm (K)": -0.17},
      {"smiles": "CC(C)N(CC(N)=O)CC(=O)Nc1ccc2oc3ccccc3c2c1", "TSA(without NAD+) / Primary screening (TSA) / delta Tm (K)": -0.07},
      {"smiles": "O=c1[nH]c2ccccc2c2nc(-c3cc(-c4ccccc4)n[nH]3)nn12", "TSA(without NAD+) / Primary screening (TSA) / delta Tm (K)": -0.15},
      {"smiles": "CC(C)C(=O)N1CCC(C(=O)N2CCc3cc(S(=O)(=O)N(C)C)ccc32)CC1", "TSA(without NAD+) / Primary screening (TSA) / delta Tm (K)": -0.13},
      {"smiles": "CC(C(N)=O)N(C)Cc1ccccc1OC(F)(F)F", "note": "(centres unmarked)", "TSA(without NAD+) / Primary screening (TSA) / delta Tm (K)": -0.12},
      {"smiles": "NC(=O)N1CCCC(C(=O)NCc2nncn2-c2ccccc2)C1", "note": "(centres unmarked)", "TSA(without NAD+) / Primary screening (TSA) / delta Tm (K)": -0.03},
      {"smiles": "Cc1nc(COc2ccc(C(=O)Nc3ccc(S(=O)(=O)Nc4cccc(F)c4)cc3)cc2)cs1", "TSA(without NAD+) / Primary screening (TSA) / delta Tm (K)": 0.09},
      {"smiles": "O=C(COC(=O)c1cccc(S(=O)(=O)N2CCc3ccccc32)c1)NC12CC3CC(CC(C3)C1)C2", "TSA(without NAD+) / Primary screening (TSA) / delta Tm (K)": 0.23},
      {"smiles": "COc1cc(CN(C)C(=O)c2ccc3c(c2)NC(=O)CS3)ccc1OCc1ccccc1", "TSA(without NAD+) / Primary screening (TSA) / delta Tm (K)": 0.08},
      {"smiles": "CCCCCCCC(=O)NCC(=O)O", "TSA(without NAD+) / Primary screening (TSA) / delta Tm (K)": -0.02},
      {"smiles": "O=C(Nc1ccc2c3c(cccc13)CC2)N1CCC(n2cncn2)CC1", "TSA(without NAD+) / Primary screening (TSA) / delta Tm (K)": -0.12},
      {"smiles": "CC(Nc1ncnc2c(F)cccc12)c1ccc(NC(=O)NC2CC2)cc1", "note": "(centres unmarked)", "TSA(without NAD+) / Primary screening (TSA) / delta Tm (K)": -0.02},
      {"smiles": "CCCCn1c(N)c(N(CC(C)C)C(=O)c2cccc(S(=O)(=O)N(C)c3ccc(C)cc3)c2)c(=O)[nH]c1=O", "TSA(without NAD+) / Primary screening (TSA) / delta Tm (K)": -0.18},
      {"smiles": "Cc1cc(C)n2nc(C(=O)Nc3ccccc3Cc3ccccc3)nc2n1", "TSA(without NAD+) / Primary screening (TSA) / delta Tm (K)": 0.02},
      {"smiles": "COc1cc2nc(S)n(C)c(=O)c2cc1OC", "TSA(without NAD+) / Primary screening (TSA) / delta Tm (K)": 0.12},
      {"smiles": "CCc1nn2c(=O)cc(CNc3ccc(F)cc3Cl)nc2s1", "TSA(without NAD+) / Primary screening (TSA) / delta Tm (K)": 0.27},
      {"smiles": "C=CCN(c1ccc(Cl)cc1)S(=O)(=O)c1cccc(C(=O)Nc2ccc(C(N)=O)cc2)c1", "TSA(without NAD+) / Primary screening (TSA) / delta Tm (K)": -0.04}
    ]}
  ]
}
